Consider 1 molecule from publication PMC4287497, “Phosphorylation of Elp1 by Hrr25 Is Required for Elongator-Dependent tRNA Modification in Yeast” (PLoS Genetics, 2015).

One assay has as its target T1, Elp3-TAP (S. cerevisiae) (UniProt Q02908).
T1 sequence: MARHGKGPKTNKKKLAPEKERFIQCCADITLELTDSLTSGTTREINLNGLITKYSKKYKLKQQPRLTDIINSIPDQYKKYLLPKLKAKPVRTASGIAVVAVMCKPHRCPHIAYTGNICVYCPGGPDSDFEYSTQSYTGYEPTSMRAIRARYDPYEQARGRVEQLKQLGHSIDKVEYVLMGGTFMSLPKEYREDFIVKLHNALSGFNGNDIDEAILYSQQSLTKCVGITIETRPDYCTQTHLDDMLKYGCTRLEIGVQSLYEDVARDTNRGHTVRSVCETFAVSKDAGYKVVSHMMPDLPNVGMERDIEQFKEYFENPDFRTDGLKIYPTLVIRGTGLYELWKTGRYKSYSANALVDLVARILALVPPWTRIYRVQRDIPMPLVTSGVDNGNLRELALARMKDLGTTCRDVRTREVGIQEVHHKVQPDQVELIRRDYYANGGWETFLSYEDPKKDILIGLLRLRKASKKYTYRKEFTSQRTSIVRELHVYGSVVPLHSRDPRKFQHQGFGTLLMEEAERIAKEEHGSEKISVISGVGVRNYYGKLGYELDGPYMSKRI
As to the kind of experiment: tandem affinity purification, kinase activity of the purified complex; Elongator purified by TAP-tagged Elp3 and incubated with [γ-32P]ATP without added kinase; phosphorylated Elp1 seen by autoradiography.

The target of assay [1] is T2, Elp1-S1198A S1202A T1204A S1205A T1206A-6HA (S. cerevisiae) (UniProt Q06706).
T2 sequence: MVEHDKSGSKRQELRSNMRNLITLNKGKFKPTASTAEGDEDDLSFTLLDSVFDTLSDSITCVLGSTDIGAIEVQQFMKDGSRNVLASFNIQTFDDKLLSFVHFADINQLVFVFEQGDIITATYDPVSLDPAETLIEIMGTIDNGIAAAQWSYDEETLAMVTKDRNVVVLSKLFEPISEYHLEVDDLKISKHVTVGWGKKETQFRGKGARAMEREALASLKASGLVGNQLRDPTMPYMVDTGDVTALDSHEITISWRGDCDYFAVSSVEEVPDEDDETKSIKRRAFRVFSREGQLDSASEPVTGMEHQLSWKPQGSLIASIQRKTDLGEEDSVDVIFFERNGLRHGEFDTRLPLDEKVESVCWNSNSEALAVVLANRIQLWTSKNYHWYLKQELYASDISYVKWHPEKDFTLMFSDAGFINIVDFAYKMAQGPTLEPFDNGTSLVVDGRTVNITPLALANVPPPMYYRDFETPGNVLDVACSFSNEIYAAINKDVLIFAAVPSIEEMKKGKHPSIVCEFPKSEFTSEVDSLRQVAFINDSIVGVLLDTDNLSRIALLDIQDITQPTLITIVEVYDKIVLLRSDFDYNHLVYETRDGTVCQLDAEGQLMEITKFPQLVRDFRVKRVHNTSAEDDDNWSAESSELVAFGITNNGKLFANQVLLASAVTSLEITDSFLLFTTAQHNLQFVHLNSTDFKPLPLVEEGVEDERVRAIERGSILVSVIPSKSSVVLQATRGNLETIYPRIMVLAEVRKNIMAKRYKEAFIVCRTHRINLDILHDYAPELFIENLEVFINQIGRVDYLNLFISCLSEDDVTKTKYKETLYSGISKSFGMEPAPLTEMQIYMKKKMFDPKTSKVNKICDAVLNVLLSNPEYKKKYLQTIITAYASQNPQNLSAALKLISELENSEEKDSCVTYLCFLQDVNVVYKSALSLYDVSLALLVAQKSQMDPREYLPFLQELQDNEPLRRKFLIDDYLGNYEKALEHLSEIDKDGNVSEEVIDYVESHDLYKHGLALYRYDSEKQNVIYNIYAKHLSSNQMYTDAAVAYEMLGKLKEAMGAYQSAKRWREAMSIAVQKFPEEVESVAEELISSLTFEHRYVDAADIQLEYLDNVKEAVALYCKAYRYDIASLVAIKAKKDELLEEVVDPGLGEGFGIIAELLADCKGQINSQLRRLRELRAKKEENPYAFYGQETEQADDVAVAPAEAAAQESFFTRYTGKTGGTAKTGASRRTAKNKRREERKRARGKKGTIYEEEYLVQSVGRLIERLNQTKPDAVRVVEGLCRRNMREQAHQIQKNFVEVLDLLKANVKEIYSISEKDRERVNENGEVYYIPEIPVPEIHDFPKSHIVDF
The assay can be described thus: co-IP; Elp2-myc immunoprecipitated from extracts of elp1Δ yeast strains carrying plasmid-borne ELP1-6HA alleles (antibody coupled to Dynabeads, B60 buffer); Western blot with anti-myc, anti-HA and anti-Hrr25.

No constants are given. Whether binding was seen depends on the method and setting. For some assays here: Binding seen in cells or lysates may run through a third protein. Some entries that bind do so weakly or less than the wild type.

B1: Hrr25 protein kinase (casein kinase I), endogenous (enzyme, UniProt P29295 1-494)
chain: MDLRVGRKFRIGRKIGSGSFGDIYHGTNLISGEEVAIKLESIRSRHPQLDYESRVYRYLSGGVGIPFIRWFGREGEYNAMVIDLLGPSLEDLFNYCHRRFSFKTVIMLALQMFCRIQYIHGRSFIHRDIKPDNFLMGVGRRGSTVHVIDFGLSKKYRDFNTHRHIPYRENKSLTGTARYASVNTHLGIEQSRRDDLESLGYVLIYFCKGSLPWQGLKATTKKQKYDRIMEKKLNVSVETLCSGLPLEFQEYMAYCKNLKFDEKPDYLFLARLFKDLSIKLEYHNDHLFDWTMLRYTKAMVEKQRDLLIEKGDLNANSNAASASNSTDNKSETFNKIKLLAMKKFPTHFHYYKNEDKHNPSPEEIKQQTILNNNAASSLPEELLNALDKGMENLRQQQPQQQVQSSQPQPQPQQLQQQPNGQRPNYYPEPLLQQQQRDSQEQQQQVPMATTRATQYPPQINSNNFNTNQASVPPQMRSNPQQPPQDKPAGQSIWL
As for B1, the binding result (in the assay with Elp3-TAP (S. cerevisiae); in assay [1]) was “binds” each time.
